PubChem BioAssay AID504804 – Drosophila RNAi Screening Center – 2011

Test: 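Fly genes whose loss lessens doxorubicin-driven cell death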 (primary screen)
System: Drosophila Kc cells
Knock-down reagent: long dsRNA against Drosophila genes, 0.5 µg dsRNA per well
Time to read-out: 96 h (48 h knock-down, then 48 h drug)
Treatment: doxorubicin 5 µg/ml for 48 h, added 48 h after dsRNA
Measured: 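Viability measured as cellular ATP by luminescence after 48 h knock-down then 48 h doxorubicin at 5 µg/ml; unnormalised plate counts for each replicate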
Direction: raw ATP luminescence: higher = more viable cells, protection from doxorubicin
Rule for the call: 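z-score of 2 or more over plate mean in both duplicates, retained only when retests and separate dsRNAs confirm the protection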
The screen tested about 19,000 reagents; below is a random part of those that have a named target and a result. Over the whole deposit, 47 (0.25%) are marked active. 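Signals are raw, not normalised; exact z-scores behind calls not deposited; actives needed confirmation, so some wells reaching 2 SD are inactive.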 Reagent sequences are not shown.

For inaD (inactivation no afterpotential D) [DRSC04694], the entry reads raw ATP luminescence, replicate 1 = 38067; raw ATP luminescence, replicate 2 = 47237; inactive.
Knock-down of Peritrophin-15a [DRSC02636] gave: raw ATP luminescence, replicate 1 = 39277; raw ATP luminescence, replicate 2 = 81617; inactive.
CG11291 [DRSC04097] showed raw ATP luminescence, replicate 1 = 64583; raw ATP luminescence, replicate 2 = 37830; inactive.
Nlg4 (Neuroligin 4) [DRSC15108] showed raw ATP luminescence, replicate 1 = 38270; raw ATP luminescence, replicate 2 = 41590; inactive.
Knock-down of Nlg4 (Neuroligin 4) [DRSC15109] resulted in: raw ATP luminescence, replicate 1 = 45720; raw ATP luminescence, replicate 2 = 41950; inactive.
Silencing of Nlg4 (Neuroligin 4) [DRSC15700] gave: raw ATP luminescence, replicate 1 = 32000; raw ATP luminescence, replicate 2 = 31310; inactive.
With knock-down of Nlg4 (Neuroligin 4) [DRSC15701], the record shows raw ATP luminescence, replicate 1 = 13150; raw ATP luminescence, replicate 2 = 15270; inactive.
Against Tsp42El (Tetraspanin 42El) [DRSC06186], the entry reads raw ATP luminescence, replicate 1 = 70307; raw ATP luminescence, replicate 2 = 50977; inactive.
CG1824 [DRSC19796] showed raw ATP luminescence, replicate 1 = 2.69e5; raw ATP luminescence, replicate 2 = 2.74e5; inactive.
Dyb (Dystrobrevin) [DRSC07208] scored raw ATP luminescence, replicate 1 = 55470; raw ATP luminescence, replicate 2 = 62467; inactive.
Knock-down of EAChm (Enhancer of Acetyltransferase Chameau) [DRSC10010] resulted in: raw ATP luminescence, replicate 1 = 80463; raw ATP luminescence, replicate 2 = 67413; inactive.

A portion taken from the entries so far:
Tsp42El (Tetraspanin 42El) [DRSC06186] → raw ATP luminescence, replicate 1 = 70307; raw ATP luminescence, replicate 2 = 50977; call = inactive
CG1824 [DRSC19796] → raw ATP luminescence, replicate 1 = 2.69e5; raw ATP luminescence, replicate 2 = 2.74e5; call = inactive
Dyb (Dystrobrevin) [DRSC07208] → raw ATP luminescence, replicate 1 = 55470; raw ATP luminescence, replicate 2 = 62467; call = inactive

The listing continues:
For Trim9 (Tripartite motif containing 9) [DRSC02242], the entry reads raw ATP luminescence, replicate 1 = 36740; raw ATP luminescence, replicate 2 = 65317; inactive.
With knock-down of mRpL52 (mitochondrial ribosomal protein L52) [DRSC06585] the results were raw ATP luminescence, replicate 1 = 45700; raw ATP luminescence, replicate 2 = 88440; inactive.
Tim8 [DRSC20291] scored raw ATP luminescence, replicate 1 = 3.95e5; raw ATP luminescence, replicate 2 = 3.23e5; inactive.
borr (borealin-related) [DRSC02749] scored raw ATP luminescence, replicate 1 = 74627; raw ATP luminescence, replicate 2 = 55993; inactive.
Depletion of CG31104 [DRSC14658] came out at: raw ATP luminescence, replicate 1 = 66170; raw ATP luminescence, replicate 2 = 75290; inactive.
Silencing of Sirt4 (Sirtuin 4) [DRSC18290] resulted in: raw ATP luminescence, replicate 1 = 47350; raw ATP luminescence, replicate 2 = 58840; inactive.
With knock-down of CG14321 [DRSC14800], the screen gave raw ATP luminescence, replicate 1 = 32160; raw ATP luminescence, replicate 2 = 22250; inactive.
After knock-down of CG15450 [DRSC20522], the record shows raw ATP luminescence, replicate 1 = 2.93e5; raw ATP luminescence, replicate 2 = 3.02e5; inactive.
Against Epp (Ecdysteroid phosphate phosphatase) [DRSC14607], the values are raw ATP luminescence, replicate 1 = 43480; raw ATP luminescence, replicate 2 = 46097; inactive.
jbug (jitterbug) [DRSC03952] gave raw ATP luminescence, replicate 1 = 68037; raw ATP luminescence, replicate 2 = 69907; inactive.
With knock-down of jbug (jitterbug) [DRSC04114] the results were raw ATP luminescence, replicate 1 = 67260; raw ATP luminescence, replicate 2 = 59000; inactive.
Depletion of jbug (jitterbug) [DRSC04167] resulted in: raw ATP luminescence, replicate 1 = 90340; raw ATP luminescence, replicate 2 = 72857; inactive.
jbug (jitterbug) [DRSC04388] showed raw ATP luminescence, replicate 1 = 48030; raw ATP luminescence, replicate 2 = 58463; inactive.
Knock-down of CG4161 [DRSC01930] came out at: raw ATP luminescence, replicate 1 = 78387; raw ATP luminescence, replicate 2 = 76607; inactive.
l(2)SH0834 (lethal (2) SH0834) [DRSC02854] showed raw ATP luminescence, replicate 1 = 42623; raw ATP luminescence, replicate 2 = 66623; inactive.
Against hlk (hulk) [DRSC05021] the deposit lists raw ATP luminescence, replicate 1 = 42813; raw ATP luminescence, replicate 2 = 56227; inactive.
With knock-down of hlk (hulk) [DRSC05022] the results were raw ATP luminescence, replicate 1 = 51013; raw ATP luminescence, replicate 2 = 57060; inactive.
